# Test results published in PubChem BioAssay AID2685 (National Center for Advancing Translational Sciences (NCATS), 2010).
# The list shows a part of the results. The main result of the screen is listed elsewhere. These columns were measured beside it and carry no call. Most of these compounds were active or inconclusive in the main read-out, so they are no random draw. Potencies come from curve fits of mixed quality, noted in brackets.
# Assay: qHTS Assay for Lipid Storage Modulators in Drosophila S3 Cells;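 as to cell number change: cells counted by Cell Tracker Red CMTPX staining in the red channel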
# Conditions: BODIPY lipid droplet fluorescence, 18-24 h; for cell number change: measured here: cell count max response, cells fed with added oleic acid
# Procedure, shortened: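 Drosophila S3 cells got compounds at several concentrations plus oleic acid (400 uM solution). Laser-scanning cytometry with 488 nm excitation read lipid droplets at 500-530 nm and cells at 575-640 nm. Percent activity was relative to 20 uM Triacsin C.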
# [1] = measured here: cell number channel AC50, cells fed with added oleic acid
# [2] = measured here: lipid fluorescence (Fed channel) AC50, cells fed with added oleic acid
Structure (SMILES),cell number change [%],AC50 [1],AC50 [2]
Cc1ccc(S(=O)(=O)N2CCOCC2)cc1NC(=O)COC(=O)c1cc(=O)c2ccccc2o1,16.7,"0.517 µM [rising, partial curve, poor fit]",–
CCCCNC(=O)c1onc(CSc2cc(C)ccc2C)c1C(=O)O,-19.1,–,"0.116 µM [falling, full curve, poor fit]"
CCc1c(C)n2nc(C)cc2[nH]c1=O,6.47,–,"2.31 µM [falling, partial curve]"
Cc1ccc(S(=O)(=O)c2nc(-c3ccccc3)oc2N2CCCC2)cc1,-16.4,–,"0.00517 µM [falling, full curve, poor fit]"
COc1ccc(Cl)cc1NS(=O)(=O)c1cccc(C(=O)NCC2(N(C)C)CCCCC2)c1,–,–,"1.64 µM [falling, partial curve]"
COc1ccc(N(CC(=O)Nc2ccccc2C(N)=O)S(=O)(=O)c2ccc(C)c([N+](=O)[O-])c2)cc1,-33.5,"8.2 µM [falling, single point]",–
O=C(c1ccccc1F)N1CCN=C1SCc1cccnc1,31.3,"20.6 µM [rising, single point]","23.1 µM [rising, single point]"
O=C(COC(=O)c1ccc(S(=O)(=O)Nc2ccccc2)cc1)NCC1CCCO1 (configuration not stated),-5.59,–,–
CCC(C)NC(=O)c1cnn2c1NC(c1cccs1)CC2C(F)(F)F (configuration not stated),40,"10.3 µM [rising, partial curve]",–
CCOC(=O)COc1ccccc1/C=C\[N+](=O)[O-],-41.2,"8.2 µM [falling, partial curve]","4.61 µM [falling, full curve]"
N#CCSc1nn(-c2ccc(F)cc2)c(=S)s1,43,"23.1 µM [rising, single point]",–
Cc1ccccc1COCCN1CCN(S(=O)(=O)c2ccccc2)CCC1=O,–,–,"0.259 µM [rising, full curve, poor fit]"
COc1ccc(CNc2ncnc3ccccc23)cc1,-19,–,"29.1 µM [falling, single point]"
N#Cc1nc(NCC(F)F)nc(Nc2cc(F)cc(F)c2)n1,-46.2,"2.91 µM [falling, full curve]","4.11 µM [falling, full curve]"
COc1cc(C2=NOC(C(=O)NCc3cccnc3)C2)cc(OC)c1OC (configuration not stated),-21.6,–,"29.1 µM [falling, single point]"
N#CC(C(N)=O)=C1CCC2(CC1)OCCCCO2,-19.1,–,"29.1 µM [falling, partial curve]"

# Single entries from the results shown:
# In AC50 [2], CCCCNC(=O)c1onc(CSc2cc(C)ccc2C)c1C(=O)O is listed with 0.116 µM [falling, full curve, poor fit]
# In AC50 [2], COc1ccc(Cl)cc1NS(=O)(=O)c1cccc(C(=O)NCC2(N(C)C)CCCCC2)c1 is listed with 1.64 µM [falling, partial curve]
